Source: patent US4780467A, “Esters of N-alkyl-nortropines and their quaternary derivatives having anti-bronchospastic activity, and pharmaceutical compositions containing them” (Laboratori Guidotti Spa, priority 1986, dated 1988)
Like-named read-outs stand apart in the source and are kept apart here.

Legend:
[1] = test system: platelet aggregation (rabbit prp) from PAF acether; assay: platelet aggregation (rabbit prp) from PAF-acether; assay type: cell-based; conditions: Oryctolagus cuniculus
[2] = test system: platelet aggregation (rabbit prp) from arachidonic acid; assay: platelet aggregation (rabbit prp) from arachidonic acid; assay type: cell-based; conditions: Oryctolagus cuniculus
[3] = acute toxicity in the mouse; conditions: in vivo, approximate value

With CN1[C@@H]2CC[C@H]1C[C@@H](OC(=O)C(CO)c1ccccc1)C2 (stereo partly shown) [Atropine sulphate, atropine sulphate, reference compound] the IC50 [1] was greater than 1000 µM and the IC50 [2] was roughly 1000 µM.
For CC(C)[N+]1(C)[C@@H]2CC[C@H]1C[C@@H](OC(=O)C(CO)c1ccccc1)C2 (stereo partly shown) [ipratropium bromide, reference compound], the LD50 ([3]; ip, read-out: approximate value of LD50, i.p.) was 85 mg/kg and the LD50 ([3]; po, os, read-out: approximate value of LD50, os) was 600 mg/kg.
